# Data from paper PMC7862700.
# Protein sequences, listed by entry. Tags and fused reporters are not part of them. Lines headed by an entry give the natural chain unless they say otherwise; changes in a name come on top.
# UniProt Q01892: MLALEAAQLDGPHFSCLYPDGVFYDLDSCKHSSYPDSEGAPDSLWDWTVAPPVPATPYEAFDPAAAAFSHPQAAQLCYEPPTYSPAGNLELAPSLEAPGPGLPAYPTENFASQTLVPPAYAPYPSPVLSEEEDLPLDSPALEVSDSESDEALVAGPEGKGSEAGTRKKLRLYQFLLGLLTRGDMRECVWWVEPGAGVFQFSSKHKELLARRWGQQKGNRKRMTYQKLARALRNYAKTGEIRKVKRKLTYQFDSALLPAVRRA
# UniProt P41161: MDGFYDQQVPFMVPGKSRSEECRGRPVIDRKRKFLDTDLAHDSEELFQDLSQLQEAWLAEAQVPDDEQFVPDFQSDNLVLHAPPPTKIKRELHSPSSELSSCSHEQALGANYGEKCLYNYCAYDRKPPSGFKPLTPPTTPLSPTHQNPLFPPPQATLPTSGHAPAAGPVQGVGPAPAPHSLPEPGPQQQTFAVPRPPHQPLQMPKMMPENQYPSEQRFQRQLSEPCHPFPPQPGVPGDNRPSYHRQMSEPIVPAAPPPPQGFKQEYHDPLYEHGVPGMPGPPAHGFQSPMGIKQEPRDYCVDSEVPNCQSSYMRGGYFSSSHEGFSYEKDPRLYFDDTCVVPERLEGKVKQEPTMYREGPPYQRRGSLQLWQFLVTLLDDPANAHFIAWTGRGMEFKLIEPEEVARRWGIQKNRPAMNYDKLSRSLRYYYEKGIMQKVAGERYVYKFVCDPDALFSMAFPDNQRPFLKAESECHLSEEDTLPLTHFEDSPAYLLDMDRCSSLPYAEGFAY
# UniProt Q99607: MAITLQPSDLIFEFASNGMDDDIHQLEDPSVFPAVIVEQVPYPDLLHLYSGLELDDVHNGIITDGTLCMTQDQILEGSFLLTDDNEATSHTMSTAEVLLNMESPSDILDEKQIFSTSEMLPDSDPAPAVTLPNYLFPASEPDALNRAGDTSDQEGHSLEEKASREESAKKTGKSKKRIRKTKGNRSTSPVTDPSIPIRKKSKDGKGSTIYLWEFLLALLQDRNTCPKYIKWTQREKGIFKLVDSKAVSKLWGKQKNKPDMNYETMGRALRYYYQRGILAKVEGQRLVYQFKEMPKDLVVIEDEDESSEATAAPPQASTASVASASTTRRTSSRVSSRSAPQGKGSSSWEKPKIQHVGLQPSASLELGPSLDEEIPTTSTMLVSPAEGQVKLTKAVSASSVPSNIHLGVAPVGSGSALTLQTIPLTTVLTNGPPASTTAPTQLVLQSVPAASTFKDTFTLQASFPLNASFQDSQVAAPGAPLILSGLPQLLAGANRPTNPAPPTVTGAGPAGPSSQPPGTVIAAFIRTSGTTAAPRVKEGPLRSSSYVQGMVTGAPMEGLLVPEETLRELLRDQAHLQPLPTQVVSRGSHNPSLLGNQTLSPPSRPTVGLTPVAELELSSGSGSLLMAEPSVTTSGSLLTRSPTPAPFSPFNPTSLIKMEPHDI
# The entries are a selection whose mix differs from that of the whole data set. At the low end of the ranking, values are background and their order means little.
# Legend:
# Experiment in all cases: DAPPL (digital affinity profiling via proximity ligation, sequencing)
# Conditions in all cases: 10 mM Tris-HCl pH 7.5, 50 mM NaCl, 1 mM DTT, 4% glycerol, room temperature, 30 min; GST-TFs on glutathione beads, 16-mer random dsDNA library, 0.1% …; high values mean tight binding; double strand, one strand shown; scale: fold enrichment (6-mer frequency, TF over GST control)
# [1] = molecular target: T1, FLI1 (UniProt Q01543)
# T1 sequence: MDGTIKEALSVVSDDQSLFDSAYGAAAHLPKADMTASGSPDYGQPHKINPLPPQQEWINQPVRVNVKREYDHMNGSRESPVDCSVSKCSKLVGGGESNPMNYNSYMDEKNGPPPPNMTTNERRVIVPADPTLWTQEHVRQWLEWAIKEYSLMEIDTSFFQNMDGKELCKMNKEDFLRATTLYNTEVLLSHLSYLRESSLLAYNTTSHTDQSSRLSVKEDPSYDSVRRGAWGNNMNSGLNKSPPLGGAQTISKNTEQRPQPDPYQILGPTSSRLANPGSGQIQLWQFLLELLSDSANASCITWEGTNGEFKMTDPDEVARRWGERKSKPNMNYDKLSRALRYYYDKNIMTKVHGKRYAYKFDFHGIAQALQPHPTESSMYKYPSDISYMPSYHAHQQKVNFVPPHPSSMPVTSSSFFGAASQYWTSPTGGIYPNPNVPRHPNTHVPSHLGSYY
# [2] = molecular target: T2, EHF (UniProt Q9NZC4)
# T2 sequence: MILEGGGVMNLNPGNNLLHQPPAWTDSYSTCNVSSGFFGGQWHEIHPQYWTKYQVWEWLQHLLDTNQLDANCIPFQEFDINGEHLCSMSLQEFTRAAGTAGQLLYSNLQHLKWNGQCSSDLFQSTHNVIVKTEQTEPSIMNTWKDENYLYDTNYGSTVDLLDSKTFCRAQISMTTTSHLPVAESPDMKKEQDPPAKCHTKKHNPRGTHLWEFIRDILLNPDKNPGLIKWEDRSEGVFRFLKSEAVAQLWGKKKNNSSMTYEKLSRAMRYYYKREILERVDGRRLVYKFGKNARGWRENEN
# [3] = molecular target: SPIB (UniProt Q01892)
# [4] = molecular target: ETV5 (UniProt P41161)
# [5] = molecular target: ELF4 (UniProt Q99607)
# [6] = molecular target: T3, ETV2 (UniProt O00321)
# T3 sequence: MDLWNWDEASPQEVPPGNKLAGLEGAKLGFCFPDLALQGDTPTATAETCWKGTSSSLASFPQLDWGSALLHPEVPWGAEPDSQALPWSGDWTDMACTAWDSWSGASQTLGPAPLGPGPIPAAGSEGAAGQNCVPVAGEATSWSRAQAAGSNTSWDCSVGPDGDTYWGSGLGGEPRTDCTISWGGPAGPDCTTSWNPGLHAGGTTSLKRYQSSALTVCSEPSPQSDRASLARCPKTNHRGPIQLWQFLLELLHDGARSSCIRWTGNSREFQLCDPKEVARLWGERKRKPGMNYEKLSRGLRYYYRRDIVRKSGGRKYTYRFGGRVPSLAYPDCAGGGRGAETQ
# [7] = molecular target: T4, ETV3L (UniProt Q6ZN32)
# T4 sequence: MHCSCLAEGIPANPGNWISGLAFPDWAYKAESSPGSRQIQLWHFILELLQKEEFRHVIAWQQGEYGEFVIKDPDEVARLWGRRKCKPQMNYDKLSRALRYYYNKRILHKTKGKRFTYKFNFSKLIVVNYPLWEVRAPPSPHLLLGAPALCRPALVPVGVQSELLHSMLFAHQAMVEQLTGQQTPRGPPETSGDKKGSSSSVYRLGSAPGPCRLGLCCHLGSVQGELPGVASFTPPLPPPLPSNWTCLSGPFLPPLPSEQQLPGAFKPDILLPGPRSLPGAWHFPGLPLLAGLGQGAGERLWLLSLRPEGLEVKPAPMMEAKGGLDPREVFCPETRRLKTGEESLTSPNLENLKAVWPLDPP
Sequence,binding signal [1],binding signal [2],binding signal [3],binding signal [4],binding signal [5],binding signal [6],binding signal [7]
TGAGAA,0.744,0.756,0.732,0.717,0.737,0.717,0.735
TCGTAA,0.914,0.952,0.952,0.973,0.936,0.989,0.965
GGCGAT,0.805,0.807,0.792,0.782,0.804,0.93,0.741
GCCGTG,0.258,0.239,0.207,0.243,0.239,0.251,0.272
GACGCC,0.835,0.824,0.8,0.864,0.834,0.692,0.883
AAGGCG,0.663,0.65,0.647,0.73,0.668,0.732,0.677
GGAGTG,0.384,0.433,0.471,0.429,0.369,0.383,0.451
CGAGTC,0.497,0.553,0.513,0.493,0.517,0.448,0.532
CAAGAC,0.839,0.861,0.813,0.865,0.892,0.899,0.864
CGTGGT,0.532,0.582,0.638,0.561,0.571,0.514,0.553
GTCATC,0.862,0.87,0.94,0.832,0.836,0.8,0.846
CGTGCT,0.868,0.816,0.855,0.802,0.848,0.825,0.873
AGTAAG,0.79,0.778,0.757,0.736,0.747,0.787,0.776
TCAGCG,0.807,0.773,0.839,0.821,0.777,0.77,0.785
CATGGA,0.899,0.96,0.858,0.891,0.93,0.804,0.918
GACAGT,0.484,0.42,0.465,0.466,0.448,0.509,0.478
AGGATC,0.893,0.866,0.944,0.892,0.852,0.938,0.993
AAGTCG,0.524,0.466,0.477,0.467,0.473,0.46,0.484
GGGACG,0.514,0.477,0.512,0.481,0.462,0.476,0.415
AGCGGT,0.748,0.737,0.722,0.763,0.744,0.818,0.747

# Complete entries, quoted from the list. Values in the order: binding signal [1] | binding signal [2] | binding signal [3] | binding signal [4] | binding signal [5] | binding signal [6] | binding signal [7]
# CGTGCT is entered as 0.868 | 0.816 | 0.855 | 0.802 | 0.848 | 0.825 | 0.873
# CGTGGT is entered as 0.532 | 0.582 | 0.638 | 0.561 | 0.571 | 0.514 | 0.553
# TGAGAA is entered as 0.744 | 0.756 | 0.732 | 0.717 | 0.737 | 0.717 | 0.735
# GACAGT is entered as 0.484 | 0.42 | 0.465 | 0.466 | 0.448 | 0.509 | 0.478

# (list continues)

Sequence,binding signal [1],binding signal [2],binding signal [3],binding signal [4],binding signal [5],binding signal [6],binding signal [7]
AGCCGC,0.93,0.922,0.761,0.789,0.925,0.777,0.87
TCGTGC,0.838,0.721,0.818,0.72,0.783,0.824,0.74
CAGACA,0.766,0.764,0.791,0.776,0.859,0.753,0.857
ACAGAG,0.793,0.745,0.706,0.727,0.79,0.802,0.738
GCCGGT,0.668,0.679,0.648,0.664,0.633,0.652,0.604
GGACGT,0.662,0.579,0.613,0.548,0.562,0.601,0.566
GACAAC,0.932,0.954,0.911,0.935,0.973,0.953,0.912
GTGACG,0.673,0.691,0.706,0.756,0.678,0.735,0.701
CACAGT,0.814,0.703,0.731,0.75,0.751,0.754,0.769
GGGGAA,0.754,0.767,0.737,0.735,0.684,0.761,0.749
AGACGG,0.366,0.38,0.379,0.39,0.344,0.375,0.345
GGCTGA,0.743,0.835,0.667,0.785,0.791,0.99,0.934
GGGAAT,0.829,0.798,0.842,0.752,0.802,0.719,0.76
GCACAG,0.696,0.702,0.782,0.716,0.741,0.746,0.765
AGGGCC,0.923,0.986,0.877,0.935,0.945,0.957,0.856
TCGTAG,0.867,0.84,0.868,0.855,0.881,0.785,0.878
GACTAA,0.926,0.903,0.9,0.88,0.919,0.959,0.952
GCATGC,0.956,0.948,0.839,0.828,0.865,0.766,0.957
CAGCCA,0.784,0.869,0.866,0.787,0.843,0.902,0.845
CAGTGA,0.358,0.351,0.345,0.351,0.371,0.302,0.378

Sequence,binding signal [1],binding signal [2],binding signal [3],binding signal [4],binding signal [5],binding signal [6],binding signal [7]
GGACCA,0.766,0.763,0.755,0.687,0.805,0.848,0.825
CGCAGC,0.849,0.764,0.871,0.833,0.803,0.797,0.792
CGGTTG,0.743,0.794,0.742,0.805,0.722,0.804,0.782
GTTGGA,0.437,0.51,0.469,0.487,0.459,0.51,0.464
CCAGTG,0.481,0.443,0.426,0.466,0.458,0.392,0.455
CAGTTG,0.508,0.466,0.466,0.498,0.428,0.476,0.504
AGCCAA,0.903,0.87,0.886,0.875,0.922,0.851,0.871
AACGAG,0.824,0.755,0.848,0.767,0.768,0.743,0.714
CAAGCG,0.917,0.998,0.949,0.891,0.884,0.796,0.914
CCGTGC,0.55,0.554,0.579,0.646,0.588,0.607,0.649
CAAGGG,0.882,0.881,0.871,0.821,0.956,0.765,0.926
AGTTGT,0.811,0.839,0.876,0.83,0.796,0.714,0.781
ATAGGA,0.772,0.847,0.875,0.869,0.756,0.821,0.838
CCAGGG,0.653,0.607,0.565,0.607,0.598,0.612,0.615
CCCGGG,0.847,0.827,0.815,0.794,0.8,0.817,0.745
GGCCGG,0.543,0.585,0.554,0.614,0.544,0.533,0.512
AGGTGG,0.594,0.653,0.599,0.685,0.61,0.528,0.654
CCAGGA,0.679,0.722,0.736,0.713,0.66,0.673,0.657
GTGAGT,0.136,0.139,0.123,0.141,0.122,0.12,0.135
ATCGTA,0.878,0.922,0.846,0.919,0.884,0.846,0.833
